Values quoted from earlier work, collected in patent US6756065B1, “Anti-oxidant preparation based on plant extracts for the treatment of circulation and adiposity problems” (Ceteris Holding B.V., priority 1999, dated 2004).
At least one compound was matched to its structure with a doubt left.

Molecular target: cyclo-oxygenase
Conditions: read-out: IC50 of cyclo-oxygenase inhibition

O=c1cc(-c2ccc(O)c(-c3c(O)cc(O)c4c(=O)cc(-c5ccc(O)cc5)oc34)c2)oc2cc(O)cc(O)c12 [amentoflavone]
IC50: 3000 nM
